From ChEMBL document CHEMBL1124645, “Minimum-structure enkephalin analogues incorporating L-tyrosine, D(or L)-phenylalanine, and a diamine spacer” (J Med Chem, 1989)

Organism: Cavia porcellus
Experiment: tissue or blood
Settings: Ileum

For CN1CC[C@]23c4c5ccc(O)c4O[C@H]2[C@@H](O)C=C[C@H]3[C@H]1C5 [MORPHINE], the IC50 was 0.13 nM.
